Laboratory results taken from patent publication US20150315153A1, “NOVEL SULFONIC ACID DERIVATIVE COMPOUND, PHOTOACID GENERATOR, CATIONIC POLYMERIZATION INITIATOR, RESIST COMPOSITION, AND CATIONICALLY POLYMERIZABLE COMPOSITION” (ADEKA CORPORATION, priority 2012, published 2015).

Test: Acid generation rate on 365 nm UV irradiation, titration with KOH
Details: 100 mW/cm^2, 0.5%-by-mass in acetonitrile/water 9/1
Protocol: For each of Compound Nos. 4, 7, 10 and 20 as well as Comparative Compound 1, a 0.5%-by-mass acetonitrile/water mixed solution (volume ratio: acetonitrile/water =9/1) was prepared, and 5.0 g thereof was placed in a Petri dish having an inner diameter of 50 mm. Using a UV lamp and a cut filter transmitting only light having a wavelength of about 365 nm, which are manufactured by Hoya Candeo Optronics Corporation, the mixed solution was irradiated with UV having an intensity of 100 mW/cm^2. The irradiation time was 10 seconds, 30 seconds and 60 seconds for each solution. After the irradiation, the resultant was diluted with 45 g of acetonitrile/water mixed solution (volume ratio: acetonitrile/water=9/1) and then titrated with 0.1 N aqueous potassium hydroxide solution using an automatic titrator manufactured by Hiranuma Sangyo Co., Ltd. (COM-1600). The acid concentration was determined from the used volume and the acid generation rate (mol %) was calculated therefrom.

| SMILES | acid generation rate (10 seconds irradiation) | acid generation rate (30 seconds irradiation) | acid generation rate (60 seconds irradiation) |
| --- | --- | --- | --- |
| CCCCC(CC)Cc1ccc2c3c(cccc13)C(=O)N(OS(=O)(=O)c1ccc(C)cc1)C2=O (centres unmarked) [Compound No. 38] | 13.4 mol % | 14.3 mol % | 16.4 mol % |
| CC1(C)C2CCC1(CS(=O)(=O)ON1C(=O)c3cccc4cccc(c34)C1=O)C(=O)C2 (centres unmarked) [Comparative Compound 1, reference compound] |  | 2.2 mol % | 6.6 mol % |
| CCCCCCCCCCCCCCc1ccc2c3c(cccc13)C(=O)N(OS(=O)(=O)c1ccc(C)cc1)C2=O [Compound No. 40] | 9.9 mol % | 17.4 mol % | 18.3 mol % |
| CCCCc1ccc2c3c(cccc13)C(=O)N(OS(=O)(=O)c1ccc(C(F)(F)F)cc1)C2=O [Compound No. 35] | 4.1 mol % | 6.8 mol % | 11.1 mol % |
| CCCCc1ccc2c3c(cccc13)C(=O)N(OS(=O)(=O)CC13CCC(CC1=O)C3(C)C)C2=O (centres unmarked) [Compound No. 10] | so small that the measurement could not be performed | 0.3 mol % | 0.9 mol % |
| CCCCc1ccc2c3c(cccc13)C(=O)N(OS(=O)(=O)C(F)(F)F)C2=O [Compound No. 4] | 28.3 mol % | 57.4 mol % | 59.0 mol % |
| CCCCc1ccc2c3c(cccc13)C(=O)N(OS(=O)(=O)c1c(C(C)C)cc(C(C)C)cc1C(C)C)C2=O [Compound No. 7] | 0.4 mol % | 1.1 mol % | 1.6 mol % |
| CCc1ccc2c3c(cccc13)C(=O)N(OS(=O)(=O)C(F)(F)F)C2=O [Compound No. 20] | 29.1 mol % | 47.7 mol % | 65.5 mol % |
| CCCCc1ccc2c3c(cccc13)C(=O)N(OS(=O)(=O)c1ccc(C)cc1)C2=O [Compound No. 6] | 18.1 mol % | 18.3 mol % | 20.1 mol % |
